No constants are given. Whether binding was seen depends on the method and setting. In cells and extracts the contact can be indirect. These calls come from enrichment with a bait or labelling near it, and not all partners need be listed.

Protein sequences, listed by entry. Tags and fused reporters are not part of them. Lines headed by an entry give the natural chain unless they say otherwise; changes in a name come on top.
UniProt Q9U263: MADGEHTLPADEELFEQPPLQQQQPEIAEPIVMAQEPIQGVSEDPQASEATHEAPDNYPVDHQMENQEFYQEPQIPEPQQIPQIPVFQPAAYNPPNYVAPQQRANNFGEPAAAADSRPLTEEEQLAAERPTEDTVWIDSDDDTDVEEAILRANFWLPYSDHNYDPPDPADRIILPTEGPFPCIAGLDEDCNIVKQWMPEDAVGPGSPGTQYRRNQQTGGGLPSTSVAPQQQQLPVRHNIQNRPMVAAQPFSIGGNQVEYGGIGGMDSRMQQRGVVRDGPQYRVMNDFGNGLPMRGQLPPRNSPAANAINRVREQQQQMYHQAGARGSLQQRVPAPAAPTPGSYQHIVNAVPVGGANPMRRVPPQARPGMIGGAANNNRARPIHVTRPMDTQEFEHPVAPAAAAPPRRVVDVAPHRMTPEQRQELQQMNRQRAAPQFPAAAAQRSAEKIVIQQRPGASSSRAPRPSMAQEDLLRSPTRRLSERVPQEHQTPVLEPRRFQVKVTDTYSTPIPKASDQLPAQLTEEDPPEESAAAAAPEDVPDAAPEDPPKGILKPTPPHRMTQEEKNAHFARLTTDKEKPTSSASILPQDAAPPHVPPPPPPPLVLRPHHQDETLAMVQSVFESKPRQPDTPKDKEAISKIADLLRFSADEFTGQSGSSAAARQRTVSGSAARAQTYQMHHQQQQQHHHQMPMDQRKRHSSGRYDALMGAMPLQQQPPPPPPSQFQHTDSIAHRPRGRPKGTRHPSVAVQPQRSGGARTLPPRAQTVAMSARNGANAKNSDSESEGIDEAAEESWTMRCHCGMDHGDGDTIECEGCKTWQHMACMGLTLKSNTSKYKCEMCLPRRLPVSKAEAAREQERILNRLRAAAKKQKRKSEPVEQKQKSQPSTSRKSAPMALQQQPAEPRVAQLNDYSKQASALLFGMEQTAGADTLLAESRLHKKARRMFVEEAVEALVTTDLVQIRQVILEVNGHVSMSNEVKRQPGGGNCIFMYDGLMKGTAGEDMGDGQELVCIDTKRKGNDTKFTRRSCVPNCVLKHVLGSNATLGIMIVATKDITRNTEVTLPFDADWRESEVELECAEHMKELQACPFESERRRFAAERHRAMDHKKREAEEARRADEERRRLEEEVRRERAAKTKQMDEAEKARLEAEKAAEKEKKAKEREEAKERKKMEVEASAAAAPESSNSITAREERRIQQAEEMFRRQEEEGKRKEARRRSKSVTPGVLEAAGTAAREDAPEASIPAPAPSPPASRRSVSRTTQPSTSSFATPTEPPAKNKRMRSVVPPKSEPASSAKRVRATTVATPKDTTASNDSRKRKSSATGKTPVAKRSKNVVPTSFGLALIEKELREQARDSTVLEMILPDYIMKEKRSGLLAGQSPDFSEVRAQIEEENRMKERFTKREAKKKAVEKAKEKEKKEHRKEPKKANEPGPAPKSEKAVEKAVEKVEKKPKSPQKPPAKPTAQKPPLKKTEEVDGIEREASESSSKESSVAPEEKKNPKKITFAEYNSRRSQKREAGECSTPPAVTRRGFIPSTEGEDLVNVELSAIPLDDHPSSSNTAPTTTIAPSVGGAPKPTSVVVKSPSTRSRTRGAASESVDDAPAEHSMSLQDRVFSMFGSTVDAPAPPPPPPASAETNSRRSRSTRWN
UniProt Q9BL48: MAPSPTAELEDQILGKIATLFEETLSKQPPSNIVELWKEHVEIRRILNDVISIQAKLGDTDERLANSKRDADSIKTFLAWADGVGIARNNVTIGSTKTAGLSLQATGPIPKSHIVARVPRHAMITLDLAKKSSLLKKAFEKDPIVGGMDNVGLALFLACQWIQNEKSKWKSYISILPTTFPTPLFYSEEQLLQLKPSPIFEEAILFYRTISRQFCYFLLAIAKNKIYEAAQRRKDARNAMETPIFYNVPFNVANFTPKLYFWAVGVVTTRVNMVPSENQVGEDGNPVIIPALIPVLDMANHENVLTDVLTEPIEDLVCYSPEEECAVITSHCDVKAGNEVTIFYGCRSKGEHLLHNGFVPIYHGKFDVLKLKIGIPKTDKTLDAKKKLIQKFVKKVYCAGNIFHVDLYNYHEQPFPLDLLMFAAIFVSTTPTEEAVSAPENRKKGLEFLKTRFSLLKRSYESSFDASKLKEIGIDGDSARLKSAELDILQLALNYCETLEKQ

The target in the assay is SET-26::GFP (WT background) (C. elegans) (UniProt Q9U263). The experiment in a line: affinity purification with mass spectrometry; anti-GFP immunoprecipitation of SET-26::GFP from adult worms fed L4440 control or ulp-2(RNAi), label-free LC-MS/MS; N2 as control; 3 biological replicates.

“SET-27 (endogenous) (from UniProt Q9BL48)”: the binding entry is on record as “binds”.

For the origin of these results see article PMC11703099.
